Laboratory results as given in PMC7541494.
Results are given in words; binding and its absence hold for the method and conditions named. Some entries that bind do so weakly or less than the wild type. Tags and fused reporters may be left off the sequences shown.

Molecular target: PilA, major pilin, mature full-length, fused to T18 or T25 (BACTH) (M. xanthus) (UniProt Q59589)
Assay: two-hybrid; Bacterial Two-Hybrid (BACTH, Euromedex) in E. coli BTH101; T18 and T25 CyaA fragment fusions; blue colour on X-gal/IPTG plates and relative β-galactosidase activity, four clones a pair

- binding: binds
B1: PilA, major pilin, mature full-length, fused to T18 or T25 (BACTH) (protein, UniProt Q59589 13-220)
chain: FTLIELMIVVAIIGILAAIAIPNFIKFQARSKQSEAKTNLKALYTAQKSFFSEKDRYSDFANEIGFAPERGNRYGYRVSAAAGDCEVRNAADLPVPAAGVPCISNDSFRFGANSAIDDPTPVVARFVPQGAAGWNTTLGVQPTIADCPNCNFFAGARGNADNEATFDDWVIAGFEGSGQVGPCSEAGNVASGTPYNTRNDVACDGAAQ
